Test results as given in the supplement of paper PMC10849652.
The list shows a part of the results.

Protein sequences, listed by entry. Tags and fused reporters are not part of them. Lines headed by an entry give the natural chain unless they say otherwise; changes in a name come on top.
UniProt P62937, whole entry, looked up: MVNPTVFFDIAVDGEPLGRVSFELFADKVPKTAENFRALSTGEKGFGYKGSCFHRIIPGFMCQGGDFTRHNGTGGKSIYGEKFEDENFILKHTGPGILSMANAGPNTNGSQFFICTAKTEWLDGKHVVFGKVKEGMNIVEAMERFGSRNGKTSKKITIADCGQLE
UniProt O60568: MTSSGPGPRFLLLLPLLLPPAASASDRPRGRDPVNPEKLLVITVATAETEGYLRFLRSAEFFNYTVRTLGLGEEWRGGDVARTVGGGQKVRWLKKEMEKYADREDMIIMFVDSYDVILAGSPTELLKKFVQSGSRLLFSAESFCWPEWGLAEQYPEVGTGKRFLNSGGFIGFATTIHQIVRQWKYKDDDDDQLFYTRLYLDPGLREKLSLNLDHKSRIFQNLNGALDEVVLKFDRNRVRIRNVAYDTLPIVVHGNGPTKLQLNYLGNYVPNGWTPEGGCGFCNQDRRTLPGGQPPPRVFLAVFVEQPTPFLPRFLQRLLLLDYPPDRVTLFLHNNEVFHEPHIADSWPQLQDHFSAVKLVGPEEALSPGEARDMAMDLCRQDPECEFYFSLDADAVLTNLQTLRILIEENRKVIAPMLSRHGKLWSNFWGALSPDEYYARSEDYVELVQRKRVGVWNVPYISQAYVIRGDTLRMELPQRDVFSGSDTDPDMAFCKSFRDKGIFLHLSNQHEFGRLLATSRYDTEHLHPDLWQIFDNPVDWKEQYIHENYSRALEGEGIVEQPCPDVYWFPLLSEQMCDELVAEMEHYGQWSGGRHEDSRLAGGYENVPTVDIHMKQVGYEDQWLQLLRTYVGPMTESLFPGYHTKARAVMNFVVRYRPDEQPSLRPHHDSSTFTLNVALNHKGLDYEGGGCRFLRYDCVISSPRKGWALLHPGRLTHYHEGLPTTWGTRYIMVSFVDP
UniProt O15031: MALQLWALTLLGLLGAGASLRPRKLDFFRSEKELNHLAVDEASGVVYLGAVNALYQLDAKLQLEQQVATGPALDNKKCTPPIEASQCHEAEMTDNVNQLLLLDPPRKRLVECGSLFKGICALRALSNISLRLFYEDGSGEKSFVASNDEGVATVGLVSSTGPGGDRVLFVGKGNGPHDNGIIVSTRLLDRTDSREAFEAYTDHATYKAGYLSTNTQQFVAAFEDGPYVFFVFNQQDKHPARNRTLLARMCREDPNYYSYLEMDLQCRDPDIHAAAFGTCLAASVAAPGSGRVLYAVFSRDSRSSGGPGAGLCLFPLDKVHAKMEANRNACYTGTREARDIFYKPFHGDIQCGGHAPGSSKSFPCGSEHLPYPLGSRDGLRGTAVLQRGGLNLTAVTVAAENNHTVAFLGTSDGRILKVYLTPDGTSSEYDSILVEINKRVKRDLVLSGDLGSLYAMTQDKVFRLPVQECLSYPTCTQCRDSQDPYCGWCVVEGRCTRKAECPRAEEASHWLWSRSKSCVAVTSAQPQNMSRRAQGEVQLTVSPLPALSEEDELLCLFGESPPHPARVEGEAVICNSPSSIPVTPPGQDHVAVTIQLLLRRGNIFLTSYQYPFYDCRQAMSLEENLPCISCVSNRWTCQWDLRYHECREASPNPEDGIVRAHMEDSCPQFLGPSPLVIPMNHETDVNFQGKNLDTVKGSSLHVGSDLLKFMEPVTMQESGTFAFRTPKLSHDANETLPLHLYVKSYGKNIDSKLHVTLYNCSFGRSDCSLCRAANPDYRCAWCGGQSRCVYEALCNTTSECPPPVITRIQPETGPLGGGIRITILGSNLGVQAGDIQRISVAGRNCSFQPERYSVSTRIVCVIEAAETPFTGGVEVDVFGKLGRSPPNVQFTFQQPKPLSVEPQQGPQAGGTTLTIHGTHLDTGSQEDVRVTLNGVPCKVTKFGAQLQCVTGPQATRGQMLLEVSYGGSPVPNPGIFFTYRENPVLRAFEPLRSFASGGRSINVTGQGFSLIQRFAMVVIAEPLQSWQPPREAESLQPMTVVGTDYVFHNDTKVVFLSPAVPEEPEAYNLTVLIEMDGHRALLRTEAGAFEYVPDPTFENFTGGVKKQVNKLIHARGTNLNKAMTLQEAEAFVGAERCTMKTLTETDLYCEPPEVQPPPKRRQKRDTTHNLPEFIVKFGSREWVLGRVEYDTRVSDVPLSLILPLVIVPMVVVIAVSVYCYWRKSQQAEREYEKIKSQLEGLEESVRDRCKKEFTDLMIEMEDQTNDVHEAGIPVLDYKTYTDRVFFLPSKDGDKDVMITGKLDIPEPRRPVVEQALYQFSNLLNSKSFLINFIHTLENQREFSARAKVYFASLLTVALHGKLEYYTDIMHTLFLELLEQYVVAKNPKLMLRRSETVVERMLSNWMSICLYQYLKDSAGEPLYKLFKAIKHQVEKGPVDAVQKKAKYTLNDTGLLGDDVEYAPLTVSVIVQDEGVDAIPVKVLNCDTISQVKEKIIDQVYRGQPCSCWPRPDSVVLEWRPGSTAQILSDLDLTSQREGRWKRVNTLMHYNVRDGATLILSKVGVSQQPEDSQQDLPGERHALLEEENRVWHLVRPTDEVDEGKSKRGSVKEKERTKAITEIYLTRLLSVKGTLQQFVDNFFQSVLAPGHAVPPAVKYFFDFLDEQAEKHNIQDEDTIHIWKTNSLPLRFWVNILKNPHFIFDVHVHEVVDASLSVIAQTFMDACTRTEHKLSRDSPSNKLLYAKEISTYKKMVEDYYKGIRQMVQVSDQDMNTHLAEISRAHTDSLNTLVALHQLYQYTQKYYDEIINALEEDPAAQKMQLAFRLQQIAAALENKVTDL
UniProt Q9NRX1: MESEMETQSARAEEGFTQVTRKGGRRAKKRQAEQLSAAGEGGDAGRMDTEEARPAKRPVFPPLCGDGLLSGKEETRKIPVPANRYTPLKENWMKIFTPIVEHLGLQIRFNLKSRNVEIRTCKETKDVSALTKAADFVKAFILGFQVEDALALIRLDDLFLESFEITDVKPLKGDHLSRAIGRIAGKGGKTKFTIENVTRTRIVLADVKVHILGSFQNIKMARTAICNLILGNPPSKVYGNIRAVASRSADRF
UniProt O75817: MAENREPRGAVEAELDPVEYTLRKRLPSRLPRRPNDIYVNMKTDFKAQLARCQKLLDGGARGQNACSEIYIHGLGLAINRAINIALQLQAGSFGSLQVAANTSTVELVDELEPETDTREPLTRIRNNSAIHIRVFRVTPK
UniProt Q9NQ55: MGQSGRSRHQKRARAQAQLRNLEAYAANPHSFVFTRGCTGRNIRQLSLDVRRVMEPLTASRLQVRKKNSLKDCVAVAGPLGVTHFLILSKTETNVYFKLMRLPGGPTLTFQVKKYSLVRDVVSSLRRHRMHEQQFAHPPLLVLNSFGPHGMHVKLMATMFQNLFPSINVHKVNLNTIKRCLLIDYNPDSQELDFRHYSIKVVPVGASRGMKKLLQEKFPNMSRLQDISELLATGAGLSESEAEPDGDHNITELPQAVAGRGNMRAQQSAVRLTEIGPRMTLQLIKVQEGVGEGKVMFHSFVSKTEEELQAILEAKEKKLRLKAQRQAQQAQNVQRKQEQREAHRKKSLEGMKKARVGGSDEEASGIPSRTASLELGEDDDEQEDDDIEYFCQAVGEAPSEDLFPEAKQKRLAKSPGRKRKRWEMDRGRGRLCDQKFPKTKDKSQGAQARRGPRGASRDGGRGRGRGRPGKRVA
UniProt Q9H2U2: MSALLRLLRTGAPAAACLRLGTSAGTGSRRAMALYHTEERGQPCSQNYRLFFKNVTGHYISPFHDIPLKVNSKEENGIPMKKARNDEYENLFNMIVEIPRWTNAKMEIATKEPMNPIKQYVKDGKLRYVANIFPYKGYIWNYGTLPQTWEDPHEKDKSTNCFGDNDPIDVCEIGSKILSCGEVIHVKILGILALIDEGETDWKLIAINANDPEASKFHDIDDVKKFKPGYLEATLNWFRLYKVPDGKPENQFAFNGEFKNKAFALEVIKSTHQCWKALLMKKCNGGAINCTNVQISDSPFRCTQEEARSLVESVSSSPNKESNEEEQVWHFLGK
UniProt Q9Y2S7: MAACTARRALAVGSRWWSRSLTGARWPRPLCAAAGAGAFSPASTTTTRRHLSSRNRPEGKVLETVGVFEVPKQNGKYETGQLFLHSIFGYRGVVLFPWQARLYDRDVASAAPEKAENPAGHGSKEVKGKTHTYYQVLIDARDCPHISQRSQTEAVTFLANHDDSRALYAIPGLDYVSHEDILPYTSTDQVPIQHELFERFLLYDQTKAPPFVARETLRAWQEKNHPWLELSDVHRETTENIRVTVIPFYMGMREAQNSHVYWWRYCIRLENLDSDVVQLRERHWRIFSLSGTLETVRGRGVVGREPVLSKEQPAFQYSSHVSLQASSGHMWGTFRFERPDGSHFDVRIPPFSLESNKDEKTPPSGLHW
UniProt Q96CD2: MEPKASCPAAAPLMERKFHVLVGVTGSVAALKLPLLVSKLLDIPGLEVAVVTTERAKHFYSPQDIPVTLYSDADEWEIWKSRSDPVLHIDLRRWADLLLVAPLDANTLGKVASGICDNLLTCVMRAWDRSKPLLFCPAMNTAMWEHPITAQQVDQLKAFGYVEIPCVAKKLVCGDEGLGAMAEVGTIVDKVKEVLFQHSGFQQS
UniProt Q6UW63: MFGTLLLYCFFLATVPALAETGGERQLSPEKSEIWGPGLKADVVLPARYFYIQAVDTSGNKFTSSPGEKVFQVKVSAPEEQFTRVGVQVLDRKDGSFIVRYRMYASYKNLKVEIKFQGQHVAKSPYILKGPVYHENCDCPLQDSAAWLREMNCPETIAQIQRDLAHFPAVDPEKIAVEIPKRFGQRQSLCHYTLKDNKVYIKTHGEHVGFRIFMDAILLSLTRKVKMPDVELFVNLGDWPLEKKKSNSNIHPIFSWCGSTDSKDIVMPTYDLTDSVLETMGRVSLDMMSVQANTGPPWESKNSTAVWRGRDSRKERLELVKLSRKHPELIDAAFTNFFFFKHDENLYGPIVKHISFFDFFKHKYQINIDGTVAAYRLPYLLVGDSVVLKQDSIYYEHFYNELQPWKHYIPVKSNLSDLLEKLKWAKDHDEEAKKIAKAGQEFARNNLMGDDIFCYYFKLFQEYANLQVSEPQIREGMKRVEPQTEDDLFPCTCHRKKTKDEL
UniProt Q15181: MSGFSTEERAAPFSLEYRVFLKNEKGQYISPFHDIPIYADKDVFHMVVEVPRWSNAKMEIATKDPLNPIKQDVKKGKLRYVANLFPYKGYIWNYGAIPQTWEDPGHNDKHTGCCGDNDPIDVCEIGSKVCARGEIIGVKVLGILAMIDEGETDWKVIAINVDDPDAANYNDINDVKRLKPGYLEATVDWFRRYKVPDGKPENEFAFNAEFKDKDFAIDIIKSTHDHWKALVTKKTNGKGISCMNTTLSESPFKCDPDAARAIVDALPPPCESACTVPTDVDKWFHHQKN
UniProt A5A3E0, whole entry, looked up: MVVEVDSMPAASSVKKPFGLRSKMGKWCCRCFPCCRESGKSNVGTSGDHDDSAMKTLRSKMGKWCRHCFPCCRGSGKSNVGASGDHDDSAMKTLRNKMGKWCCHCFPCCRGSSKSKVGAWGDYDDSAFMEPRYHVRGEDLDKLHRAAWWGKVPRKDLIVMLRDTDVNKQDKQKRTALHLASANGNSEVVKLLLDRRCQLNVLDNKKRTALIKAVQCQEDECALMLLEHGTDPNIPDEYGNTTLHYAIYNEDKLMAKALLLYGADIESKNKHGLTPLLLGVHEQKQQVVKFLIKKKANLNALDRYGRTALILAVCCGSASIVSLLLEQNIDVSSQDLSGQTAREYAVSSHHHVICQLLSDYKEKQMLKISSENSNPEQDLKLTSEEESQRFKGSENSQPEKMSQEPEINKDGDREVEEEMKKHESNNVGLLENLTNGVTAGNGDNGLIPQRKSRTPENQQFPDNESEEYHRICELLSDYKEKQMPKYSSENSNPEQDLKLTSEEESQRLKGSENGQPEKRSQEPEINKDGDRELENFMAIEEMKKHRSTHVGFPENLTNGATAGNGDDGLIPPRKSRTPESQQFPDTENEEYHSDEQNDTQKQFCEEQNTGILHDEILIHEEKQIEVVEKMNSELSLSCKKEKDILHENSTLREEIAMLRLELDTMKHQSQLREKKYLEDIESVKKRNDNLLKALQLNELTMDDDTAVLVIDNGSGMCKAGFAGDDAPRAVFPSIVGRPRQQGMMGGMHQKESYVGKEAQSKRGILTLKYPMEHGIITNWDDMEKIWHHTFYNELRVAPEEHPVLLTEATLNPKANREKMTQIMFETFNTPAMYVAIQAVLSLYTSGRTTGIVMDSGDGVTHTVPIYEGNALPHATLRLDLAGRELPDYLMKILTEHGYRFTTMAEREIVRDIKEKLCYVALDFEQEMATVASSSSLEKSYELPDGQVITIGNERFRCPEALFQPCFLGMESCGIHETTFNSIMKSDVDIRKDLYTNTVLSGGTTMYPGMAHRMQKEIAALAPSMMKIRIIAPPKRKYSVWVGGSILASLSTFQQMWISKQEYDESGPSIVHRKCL
UniProt P30405: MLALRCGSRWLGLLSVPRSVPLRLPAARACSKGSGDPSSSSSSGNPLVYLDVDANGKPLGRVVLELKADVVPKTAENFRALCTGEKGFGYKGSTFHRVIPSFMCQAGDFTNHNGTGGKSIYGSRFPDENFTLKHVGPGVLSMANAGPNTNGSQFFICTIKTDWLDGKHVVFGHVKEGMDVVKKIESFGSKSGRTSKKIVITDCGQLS

Compound: CNC(=O)C1=CC=CC=C1NC2=NC(=NC=C2Cl)NC3=C(C=C(C=C3)N4CCOCC4)OC
Test: log2 fold change, soluble protein after heating vs DMSO (PISA); higher = thermal stabilisation; K562 cells, 10 uM, 30 min; active = over 0.2 and 3.5 SD of the protein, either way, in both replicates (recomputed)
In short: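 Soluble protein was quantified by TMTpro 16plex LC-MS/MS after channel sums were equalised. It was obtained as the supernatant after 21,000xg for 90 min from pooled aliquots of K562 cells (2×10^6 cells/mL, 10 μM compound, 30 min) heated for 3 min across 48°C-58°C and extracted in PBS with 0.5% NP-40 at 4°C. Thermal stability values are relative to control samples and come from duplicates. They are given as log2 fold changes.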

log2 fold change, inactive:
POFUT2 (UniProt Q9Y2G5) 0.019
PPIA (UniProt P62937) 0.079
POLR3C (UniProt Q9BUI4) -0.039
POFUT1 (UniProt Q9H488) 0.009
PPM1B (UniProt O75688) 0.008
PPIP5K2 (UniProt O43314) 0.013
PNPO (UniProt Q9NVS9) -0.004
POLDIP3 (UniProt Q9BY77) 0.03
PPFIA1 (UniProt Q13136) 0.005
PMF1 (UniProt Q6P1K2) -0.015
POLG2 (UniProt Q9UHN1) 0.026
PLOD3 (UniProt O60568) 0.013
PLXNB2 (UniProt O15031) -0.022
PNO1 (UniProt Q9NRX1) 0.003
PLIN3 (UniProt O60664) 0
POMGNT1 isoform 2 (UniProt Q8WZA1) -0.007
POP7 (UniProt O75817) -0.092
PPAT (UniProt Q06203) 0.031
PPAN isoform 3 (UniProt Q9NQ55) -0.061
PPA2 (UniProt Q9H2U2) 0.037
POP5 (UniProt Q969H6) -0.024
POSTN (UniProt Q15063) 0.052
POLDIP2 (UniProt Q9Y2S7) -0.019
PPCDC (UniProt Q96CD2) -0.055
POLR2H (UniProt P52434) -0.063
POGLUT2 (UniProt Q6UW63) 0.007
POLR3F (UniProt Q9H1D9) -0.034
PPA1 (UniProt Q15181) 0.009
POTEF (UniProt A5A3E0) -0.04
POU2F1 isoform 6 (UniProt P14859) -0.086
PNKD isoform 2 (UniProt Q8N490) 0.017
PPIF (UniProt P30405) -0.023
PPIE (UniProt Q9UNP9) 0.003

Quoted at random: 2 records from the list
log2 fold change, inactive:
PPIF (UniProt P30405) -0.023
POU2F1 isoform 6 (UniProt P14859) -0.086
